Data on 1 compound can be found in patent publication US20220168329A1, “COMBINATORIAL DRUG TREATMENT OF CANCER” (University of Virginia Patent Foundation, priority 2019, published 2022).

The subject of the series is PANC-1 cells. In words: RNA-Seq transcriptional response to Gem. Type of series: cell-based, Human. The settings on record: IC30 Gem for 24 hours. As for the experimental part: Control sgRNA (CgRNA) and PRMT5-KO cells were treated with gemcitabine (200 nM) or EPZ015666 (500 nM) for 48 hours. Total RNA was purified using an RNeasy mini kit (Qiagen #74104) by following the kit instructions. mRNA was isolated by using NEBNext Poly(A) mRNA Magnetic Isolation Module (New England Biolabs #7490S). RNA-Seq libraries were prepared using the NEBNext Ultra Directional RNA Library Prep Kit for Illumina (New England Biolabs #E7420S) by following the company's protocol. A Qubit measurement and bioanalyzer were used to determine the library quality.
General sequencing data quality was examined using FastQC (v. 0.11.5). […] The resulting sam files were sorted by reading names and converted to bam files using samtools (v. 1.9) sort command. For ATAC-Seq, sequencing reads mapped to mitochondria DNA were removed from the bam files using the samtools view. […] Next, the bam files were quantified against gencode (v27lift37) annotation using Stringtie (v. 1.3.4d) with the default settings.
After obtaining the gene count matrix from Stringtie, we imported it into R and normalized the data following the pipeline of DESeq2. […] By calling the DESeq function, we determined genes with significant expression changes between the PRMT5 WT and KO samples thresholding at an adjusted P value of 0.01. […]

Turning to `Nc1ccn([C@@H]2O[C@H](CO)[C@@H](O)C2(F)F)c(=O)n1` [Gem, 2′,2′-difluoro 2′-deoxycytidine], the genes significantly altered runs as follows: (PANC-1 KO cells) 1,598 genes; (WT PANC-1 cells) 21 genes.
